Measurements taken from PubChem BioAssay AID743266 (National Center for Advancing Translational Sciences (NCATS), 2014).
Hit rate of the full screen: of about 410,000 compounds, about 310 (0.076%) were called active. This list was built around the results that the source calls inconclusive (neither active nor inactive); the mix of calls is not that of the screen. Calls come from the whole dose curve; as a rule, active = well fitted activation curve with a large enough effect; inconclusive = small, poorly fitted or top-dose-only effect, or another doubt; inactive = no such curve, though single readings can be large or run the other way. Where the call is inconclusive, the potency comes from a doubtful curve fit.

By UniProt entry, the sequences of proteins in these tests, tags left out.
UniProt Q03431, whole entry, looked up: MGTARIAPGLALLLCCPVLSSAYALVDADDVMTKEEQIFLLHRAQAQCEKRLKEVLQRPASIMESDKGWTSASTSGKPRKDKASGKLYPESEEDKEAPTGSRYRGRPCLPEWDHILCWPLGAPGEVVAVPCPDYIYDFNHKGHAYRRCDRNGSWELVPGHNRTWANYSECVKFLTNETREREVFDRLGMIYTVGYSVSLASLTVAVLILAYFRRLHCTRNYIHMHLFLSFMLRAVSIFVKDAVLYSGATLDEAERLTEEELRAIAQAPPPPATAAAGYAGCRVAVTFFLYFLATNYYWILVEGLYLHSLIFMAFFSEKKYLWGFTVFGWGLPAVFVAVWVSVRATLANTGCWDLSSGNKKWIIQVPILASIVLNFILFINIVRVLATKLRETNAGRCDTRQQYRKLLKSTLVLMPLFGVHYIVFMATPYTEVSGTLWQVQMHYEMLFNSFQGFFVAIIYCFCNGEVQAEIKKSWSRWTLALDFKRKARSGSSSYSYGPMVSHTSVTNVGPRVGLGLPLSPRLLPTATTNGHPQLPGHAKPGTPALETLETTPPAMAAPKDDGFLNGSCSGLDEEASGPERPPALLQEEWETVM

Molecular target: Parathyroid hormone/parathyroid hormone-related peptide receptor (Homo sapiens) (UniProt Q03431)
Experiment: qHTS for PTHR1 Agonists: Primary Screen; note: nearly all actives have a fitted effect of over 55% in size
Details: HEK293 GP2 PTHR1 cells, GloSensor cAMP luminescence, 1 h; activation: at 115 µM (top of the series) unless noted; series mostly up to 115 µM
In short: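 HEK-293-derived GP2 cells expressing PTHR1 and a GloSensor cAMP reporter, 3,000/well, plated overnight, given luciferin plus IBMX (each 0.5 mM as added) for 1 h at 37 °C, then compound for 1 h at 37 °C. Luminescence was read after 15 min at room temperature.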
Potency is the fitted concentration of half-maximal effect.

Potency, inconclusive:
CN(Cc1nccn1C)C(=O)CC1C(=O)NCCN1CC(c1ccccc1)c1ccccc1 (stereo unspecified) 100 µM [activator, partial curve, poor fit]
Cc1ccccc1OCCSc1nnc(-c2ccc([N+](=O)[O-])cc2)o1 7.08 µM [activator, partial curve, poor fit]
O=C(Nc1cccc(Cl)c1)Nc1nccs1 0.965 µM [activator, full curve]
Cc1cc2nc(N(Cc3cccnc3)C(=O)c3ccc(Cl)s3)sc2cc1C 39.8 µM [activator, partial curve, poor fit]
Cc1ccc(S(=O)(=O)N2CCN(C(=O)c3n[nH]c(=O)c4ccccc34)CC2)c(C)c1 4.47 µM [activator, partial curve]
NC(=O)CCN1CCN(S(=O)(=O)/C=C/c2ccccc2)CC1 15.8 µM [activator, partial curve]
CN(C)C(=O)COc1ccc(Br)cc1 0.891 µM [activator, full curve, poor fit]
CC(C)C(NC(=O)C(NC(=O)C1O[C@@H]2OC(C)(C)O[C@@H]2[C@H]2OC(C)(C)O[C@@H]12)C(C)C)C(=O)O (stereo partly specified) 35.5 µM [activator, partial curve, poor fit]
Cc1ncc(CO)c2c1Oc1nc(-c3ccc(F)cc3)nc(SCc3ccc(F)cc3Cl)c1C2 112 µM [activator, single point]
Cn1cc(CN2CCCC(CO)(Cc3cccc(Cl)c3)C2)cn1 (stereo unspecified) 126 µM [activator, single point]
CC(C)[C@H](NC(N)=O)C(=O)NCCc1ccc(Cl)cc1 126 µM [activator, single point]
CCn1c(SCc2ccc(C#N)cc2)nnc1-c1cccc(Cl)c1 35.5 µM [activator, partial curve, poor fit]
COC(=O)c1ccccc1NC(=O)CN(c1ccccc1OC)S(C)(=O)=O 15.8 µM [activator, partial curve, poor fit]
C=CCn1c(SCC(=O)N2CCOCC2)nc2scc(-c3ccco3)c2c1=O 12.6 µM [activator, single point]
COc1ccc(/C=N/NC(=O)CC2N=C(Cc3ccccc3)NNC2=O)cc1OC (stereo unspecified) 141 µM [activator, single point]
Cc1cc(=O)[nH]c2nnc(SCc3ccc(Cl)c(Cl)c3)n12 28.2 µM [activator, partial curve, poor fit]
CCOc1ncccc1C(=O)OCc1ccccc1 126 µM [activator, single point]
CC(NC(=O)CSc1n[nH]c(-c2ccccc2Cl)n1)c1nc2ccccc2n1C (stereo unspecified) 141 µM [activator, single point]
O=S(=O)(c1ccc(Br)s1)N1CCN(c2ccccn2)CC1 8.91 µM [activator, partial curve, poor fit]
CCOCCCNC(=O)c1cc2sc(Cl)cc2n1CC 39.8 µM [activator, single point]
COc1cccc(NC(=O)CSc2nc(O)c(C/C=C/c3ccccc3)c(=O)[nH]2)c1 63.1 µM [activator, partial curve, poor fit]
CCN1CCN(C(=O)C2COc3ccccc3O2)CC1 (stereo unspecified) 112 µM [activator, single point]
COc1ccc(-n2cc(CNCCc3cnc[nH]3)c(-c3cccc(F)c3)n2)cc1 39.8 µM [activator, partial curve]
O=C(NCC(c1ccc(F)cc1)N1CCOCC1)c1cccc(Br)c1 (stereo unspecified) 126 µM [activator, single point]
CCN(C(=O)CSc1nnc(-c2ccccc2OC)n1N)c1c(N)n(Cc2ccccc2)c(=O)[nH]c1=O 89.1 µM [activator, single point]
CCN1CCCC1CNC(=O)C1CCN(C(=O)c2cc3sccc3n2Cc2ccc(F)cc2)CC1 (stereo unspecified) 112 µM [activator, single point]
C#CCOc1ccc(Cl)cc1/C=N/O 44.7 µM [activator, single point]
CCC(=O)N1CCc2cc(S(=O)(=O)NCCC(=O)Nc3cccc(C)c3C)ccc21 44.7 µM [activator, partial curve, poor fit]
CCOC(=O)CSc1nc(N2CCOCC2)c2c(c1C#N)CC(C)(C)N(C)C2 7.94 µM [activator, full curve]
N#CCSCC(=O)Nc1ccc(F)cc1 25.1 µM [activator, partial curve, poor fit]
O=c1c2ccccc2nc2c3ccccc3c(NCc3cccnc3)nn12 25.1 µM [activator, single point]
c1ccc(N2CCN(CC3CCCCC3)CC2)cc1 11.2 µM [activator, partial curve, poor fit]
CSCCC(NC(=O)COc1ccccc1)C(=O)NCc1cccs1 (stereo unspecified) 22.4 µM [activator, partial curve, poor fit]
Cc1ccc(NCN2C(=O)C3CC=C(Cl)CC3C2=O)cc1 (stereo unspecified) 4.47 µM [activator, partial curve]
CCOc1ccc(N(CC(=O)Nc2ccc(OC)cc2OC)S(=O)(=O)c2c(C)[nH]c(=O)[nH]c2=O)cc1 89.1 µM [activator, partial curve, poor fit]
COc1ccccc1CN(Cc1cc2cc(C)cc(C)c2[nH]c1=O)Cc1nnnn1CC1CCCO1 (stereo unspecified) 4.47 µM [activator, partial curve, poor fit]
COc1ccc2c(c1)-c1nc(NC(=O)c3cc(OC)c(OC)c(OC)c3)sc1CC2 79.4 µM [activator, partial curve, poor fit]

activation, inactive:
CCc1ccc(S(=O)(=O)NCc2ccc(C(=O)NCCN(Cc3ccccc3)C(C)C)cc2)cc1 -24.7%
Cc1cccc(N2CCN(c3ccc(NC(=O)c4ccccc4)cc3C(=O)O)CC2C)c1 (stereo unspecified) -15.1%
COc1cccc2c1C(=O)c1c(O)c3c(c(O)c1C2=O)C[C@@](O)(C(C)=O)C[C@@H]3O[C@H]1C[C@H](N)[C@H](O)[C@H](C)O1 -13.6%
CN1C/C(=C/c2cccnc2)C(=O)/C(=C/c2cccnc2)C1 -94.2%
O=C(c1cn(CC(=O)N2CCCCC2)c2ccccc12)C1CC1 -20.2%
O=C(/C=C/c1ccccc1)N1CCN(CC(O)COc2ccccc2)CC1 (stereo unspecified) -3.35% [at 57.5 µM]
COc1ccc(NC(=O)CSc2nnc(Cc3cccs3)n2-c2ccc(C)cc2)cc1 -16.3%
CCCc1cc(C(=O)Nc2cccc3ccccc23)n(C)n1 -2.01%
Cc1c(C(=O)NCCSCc2c(F)cccc2Cl)cnn1-c1ccc(Cl)cc1 -29.2%
CC1=CN2C(=N)/C(=C/c3ccco3)C(=O)N=C2S1 -36%
CCC(NC(=O)Nc1nccs1)(C(F)(F)F)C(F)(F)F -6.81% [at 57.5 µM]
CCOC(=O)c1noc2ncn(CC(=O)Nc3ccccc3OC)c(=O)c12 -19.4%

activation, inconclusive:
Cc1cc(C(C)(C)C)cc(C)c1CCNC(=O)c1c(C)noc1C -51% [activator]
N#Cc1ccc(NC(=O)N2CCC(c3nc4c(nnn4Cc4cccc(Cl)c4)c(=O)[nH]3)CC2)cc1 49.4% [activator] [at 57.5 µM]
Cn1cc([N+](=O)[O-])c(C(=O)N2CCN(Cc3ccc4c(c3)OCO4)CC2)n1 44% [activator]
CS(=O)(=O)c1ccccc1-c1nnc(NC(=O)Cc2ccccc2)o1 139% [activator]
Cc1ccc(CN2c3ccccc3-c3nc(SCC(=O)Nc4c(C)cc(C)cc4C)ncc3S2(=O)=O)cc1 33.5% [activator]
CS(=O)(=O)c1ccc(-c2cccc(NC(=O)COc3ccc(Cl)cc3)c2)nn1 -64.5% [activator]
CC(Oc1ccccc1[N+](=O)[O-])C(=O)N/N=C/c1ccoc1 (stereo unspecified) -60.7% [activator]
CCCc1nnc(N2C(=O)c3oc4ccc(F)cc4c(=O)c3C2c2ccc(C(=O)OC)cc2)s1 (stereo unspecified) 37.6% [activator]
COc1ccc(NS(=O)(=O)c2cccc(C(=O)NNC(=O)c3cc(S(N)(=O)=O)ccc3OC)c2)cc1 56% [activator]
COC(=O)c1ccc(C(C(=O)NCc2ccccc2)N(Cc2cccs2)C(=O)c2cnccn2)cc1 (stereo unspecified) 75.3% [activator] [at 57.5 µM]
O=C(Cn1ncc2c3ccccc3n(Cc3ccccc3)c2c1=O)NC1CCCCCC1 38.2% [activator]

Ordered by number of heavy atoms (ascending): 4 of the compounds above.
activation, inconclusive:
CS(=O)(=O)c1ccccc1-c1nnc(NC(=O)Cc2ccccc2)o1 139% [activator]
Cn1cc([N+](=O)[O-])c(C(=O)N2CCN(Cc3ccc4c(c3)OCO4)CC2)n1 44% [activator]
O=C(Cn1ncc2c3ccccc3n(Cc3ccccc3)c2c1=O)NC1CCCCCC1 38.2% [activator]
Cc1ccc(CN2c3ccccc3-c3nc(SCC(=O)Nc4c(C)cc(C)cc4C)ncc3S2(=O)=O)cc1 33.5% [activator]

Following part.

outcome, inactive:
CSc1ncc(Cl)c(C(=O)Nc2c(C(=O)c3ccc(C)c(F)c3)oc3ccccc23)n1
CCC1=Nc2cc(C(=O)NC(C)c3ccccc3)ccc2Sc2ccc(Cl)cc21 (stereo unspecified)
Cc1ccc(NC(=O)Nc2ccc3c(c2)OCO3)c(Br)c1
Cc1ccc(C)c(CN2C(=O)c3ccccc3Sc3ccc(C(=O)NCc4ccco4)cc32)c1
CCOc1ccccc1N1C(=O)c2ccc(C(=O)O)cc2C1=O inactive [at 57.5 µM]
CCCNC(=O)C1(C)CCN(Cc2cc(C(F)(F)F)ccc2Cl)C1 (stereo unspecified)
